# Measured values taken from the supplement of paper PMC6331611.
# Where “and” joins values, the source holds several entries; their conditions need not be identical. Equal values may be shown once. Where a name gives a salt, the structure may show the parent alone. ± gives the standard deviation of the averaged measurements. In all, about 1,600 compounds were measured (“normalized growth (OD600, IQM-normalized) in LPM”: median about 1, lowest 2% from about 0.014 on). This is one part of the list.
# Tested on: Salmonella enterica serovar Typhimurium SL1344
# Experiment: normalized growth (OD600, IQM-normalized) in LPM (fraction of plate interquartile mean); higher = more bacterial growth (less inhibition)
# Conditions: LPM pH 5.8; 10 µM; 16 h
row,Compound,normalized growth
1,CN(C)CCOC(=O)C(c1ccccc1)C1(O)CCCC1 (stereo unspecified),0.955 ± 0.15
2,C[C@H](N[C@@H](CCc1ccccc1)C(=O)O)C(=O)N1Cc2ccccc2C[C@H]1C(=O)O,1.02 ± 0.05
3,Nc1ccc(/N=N/c2ccccc2)c(N)n1,1.07 ± 0.03
4,OC(CCN1CCCCC1)(c1ccccc1)c1ccccc1,1.13 ± 0.04
5,CCCCC(=O)N(Cc1ccc(-c2ccccc2-c2nnn[nH]2)cc1)[C@H](C(=O)O)C(C)C,0.845 ± 0.034
6,CCN(CC)CCNC(=O)c1cc(Br)c(N)cc1OC,0.927 ± 0.028
7,CCOC(N)=O,0.916 ± 0.056
8,O=C1c2cccc(O)c2C(=O)c2c(O)cccc21,0.827 ± 0.05
9,CC(C)NNC(=O)c1ccncc1,0.978 ± 0.028
10,CSCC[C@H](NC(=O)[C@H](Cc1c[nH]c2ccccc12)NC(=O)CCNC(=O)OC(C)(C)C)C(=O)N[C@@H](CC(=O)O)C(=O)N[C@@H](Cc1ccccc1)C(N)=O,1.09 ± 0.026
11,CN(C)CCc1c[nH]c2ccc(CS(=O)(=O)N3CCCC3)cc12,0.986 ± 0.045
12,CN1CCN2c3ccccc3Cc3ccccc3C2C1 (stereo unspecified),0.984 ± 0.042
13,O=C(O)CCC(=O)c1ccc(-c2ccccc2)cc1,1.042 ± 0.01
14,O=C1c2c(O)ccc(O)c2C(=O)c2c(NCCNCCO)ccc(NCCNCCO)c21,0.951 ± 0.044
15,C[C@H](CCC(=O)O)[C@H]1CC[C@H]2[C@@H]3C(=O)C[C@@H]4CC(=O)CC[C@]4(C)[C@H]3CC(=O)[C@]12C,0.981 and 1.07
16,CO[C@H]1C[C@H](O[C@@H]2/C(C)=C/C[C@@H]3C[C@@H](C[C@]4(CC[C@H](C)[C@@H](C5CCCCC5)O4)O3)OC(=O)[C@@H]3C=C(C)/C(=N/O)[C@H]4OC/C(=C\C=C\[C@@H]2C)[C@]43O)O[C@@H](C)[C@@H]1O,0.916 ± 0.01
17,CCOC(=O)C1=C(C)NC(C)=C(C(=O)OC)C1c1cccc(Cl)c1Cl (stereo unspecified),0.935 ± 0.076
18,OC[C@H]1O[C@@H](O[C@H]2[C@H](O)[C@@H](O)C(O)O[C@@H]2CO)[C@H](O)[C@@H](O)[C@H]1O (stereo partly specified),1.14 ± 0.057
19,COC(=O)/C=C/C(=O)OC,1.42 ± 0.16
20,CC(C)(C)NC[C@H](O)COc1cccc2c1CCCC2=O,0.9944 ± 0.0084
21,C[N+](C)(C)CCOC(N)=O,0.974 ± 0.025
22,O=C(NC(Cc1cc(=O)[nH]c2ccccc12)C(=O)O)c1ccc(Cl)cc1 (stereo unspecified),0.938 ± 0.015
23,CCC(=O)OCC(=O)[C@@]1(OC(=O)CC)[C@@H](C)C[C@H]2[C@@H]3CCC4=CC(=O)C=C[C@]4(C)[C@@]3(F)[C@@H](O)C[C@@]21C,1.06 ± 0.047
24,CC1(C)O[C@@H]2C[C@H]3[C@@H]4C[C@H](F)C5=CC(=O)CC[C@]5(C)[C@H]4[C@@H](O)C[C@]3(C)[C@]2(C(=O)CO)O1,1.12 ± 0.017

# Random excerpt: 5 entries already listed
row,Compound,normalized growth
1,CN(C)CCOC(=O)C(c1ccccc1)C1(O)CCCC1 (stereo unspecified),0.955 ± 0.15
7,CCOC(N)=O,0.916 ± 0.056
15,C[C@H](CCC(=O)O)[C@H]1CC[C@H]2[C@@H]3C(=O)C[C@@H]4CC(=O)CC[C@]4(C)[C@H]3CC(=O)[C@]12C,0.981 and 1.07
5,CCCCC(=O)N(Cc1ccc(-c2ccccc2-c2nnn[nH]2)cc1)[C@H](C(=O)O)C(C)C,0.845 ± 0.034
17,CCOC(=O)C1=C(C)NC(C)=C(C(=O)OC)C1c1cccc(Cl)c1Cl (stereo unspecified),0.935 ± 0.076

# (listing goes on)

row,Compound,normalized growth
1,NNC(=O)c1ccncc1,0.945 ± 0.06
2,COc1ccc(-c2ccc3cc(C(=O)O)ccc3c2)cc1C12CC3CC(CC(C3)C1)C2,0.812 ± 0.024
3,CCN1CCCC1CNC(=O)c1cc(S(N)(=O)=O)ccc1OC (stereo unspecified),1.05 ± 0.042
4,Cc1cccc(N(C)C(=S)Oc2ccc3ccccc3c2)c1,1.7 ± 0.24
5,N[C@@H](COP(=O)(O)O)C(=O)O,1 ± 0.028
6,O=c1[nH]c(=O)n([C@H]2C[C@H](O)[C@@H](CO)O2)cc1I,1.05 ± 0.026
7,CCCCc1oc2ccccc2c1C(=O)c1cc(I)c(OCCN(CC)CC)c(I)c1,0.994 ± 0.039
8,CCOc1ccc(Cc2nccc3cc(OCC)c(OCC)cc23)cc1OCC,0.9951 ± 0.0073
9,O=C(Nc1ccc([N+](=O)[O-])cc1Cl)c1cc(Cl)ccc1O,0.984 ± 0.019
10,C#C[C@]1(O)CC[C@H]2[C@@H]3CCC4=Cc5oncc5C[C@]4(C)[C@H]3CC[C@@]21C,0.915 ± 0.011
11,Nc1ccc(S(=O)(=O)O)cc1.Nc1ccc(S(=O)(=O)O)cc1.[Zn],1.1324 ± 0.0009
12,CC12CC3CC(C)(C1)CC(N)(C3)C2,0.879 ± 0.13
13,CN1C(C(=O)Nc2ccccn2)=C(O)c2sc(Cl)cc2S1(=O)=O,1 ± 0.014
14,CN1CCCN=C1/C=C/c1cccs1,0.951 ± 0.041
15,CCC[C@@H]1C[C@@H](C(=O)N[C@@H]([C@H]2O[C@H](SC)[C@H](O)[C@@H](O)[C@H]2O)[C@@H](C)O)N(C)C1,1.096 ± 0.0085
16,CC/C=C\C/C=C\C/C=C\C/C=C\C/C=C\C/C=C\CCC(=O)O,1.01 ± 0.011
17,CCCCC(CC)COc1ccc(-c2nc(-c3ccc(OC)cc3)nc(-c3ccc(OCC(CC)CCCC)cc3O)n2)c(O)c1 (stereo unspecified),1.05 ± 0.035
18,O=c1cc[nH]c(=O)[nH]1,1.06 ± 0.04
19,CC(C)(C)CC(C)(C)c1ccc(OCCOCC[N+](C)(C)Cc2ccccc2)cc1,0.93 ± 0.039
20,Cn1nnc2c(C(N)=O)ncn2c1=O,0.923 ± 0.018
21,CCCCOc1ccc(C(=O)CCN2CCCCC2)cc1,1.05 ± 0.086
22,C=C1CC[C@H](O)C/C1=C/C=C1\CCC[C@]2(C)[C@@H]([C@H](C)/C=C/[C@H](C)C(C)C)CC[C@@H]12,1.04 ± 0.046
23,Nc1nc(N)c2nc(-c3ccccc3)c(N)nc2n1,0.857 ± 0.017
24,CC(C)(C)NC(=O)[C@H]1CC[C@H]2[C@@H]3CC[C@H]4NC(=O)C=C[C@]4(C)[C@H]3CC[C@]12C,1.11 ± 0.1

row,Compound,normalized growth
1,C[N+](C)(C)C[C@H](O)CC(=O)[O-],1.04 ± 0.086
2,CC(CN(C)C)CN1c2ccccc2CCc2ccccc21 (stereo unspecified),1.09 ± 0.02
3,OC(CCN1CCCC1)(c1ccccc1)C1CCCCC1 (stereo unspecified),1.02 ± 0.019
4,CC(C)NCC(O)COc1cccc2[nH]ccc12 (stereo unspecified),0.954 ± 0.05
5,CC1(C)O[C@@H]2C[C@H]3[C@@H]4C[C@H](F)C5=CC(=O)C=C[C@]5(C)[C@H]4[C@@H](O)C[C@]3(C)[C@]2(C(=O)CO)O1,0.921 ± 0.042
6,CN(Cc1cc(Br)cc(Br)c1N)C1CCCCC1,1.06 ± 0.025
7,C[C@H](CS)C(=O)N1CCC[C@H]1C(=O)O,0.976 ± 0.029
8,NCCc1ccc(O)c(O)c1,1.02 ± 0.056
9,CC[C@H](c1ccc(O)cc1)[C@@H](CC)c1ccc(O)cc1,1.13 ± 0.018
10,Cc1c(Nc2ncccc2C(=O)O)cccc1C(F)(F)F,1.04 ± 0.041
11,C[C@]12CCC(=O)C=C1CC[C@@H]1[C@@H]2[C@@H](O)C[C@@]2(C)[C@H]1CC[C@]2(O)C(=O)COP(=O)(O)O,0.979 ± 0.036
12,CC(=O)OCC(=O)[C@@]1(O)CC[C@H]2[C@@H]3CCC4=CC(=O)C=C[C@]4(C)[C@H]3[C@@H](O)C[C@@]21C,1.03 ± 0.054
13,CC#C[C@]1(O)CC[C@H]2[C@@H]3CCC4=CC(=O)CCC4=C3[C@@H](c3ccc(N(C)C)cc3)C[C@@]21C,1.02 ± 0.019
14,COc1ccc(Cl)cc1C(=O)NCCc1ccc(S(=O)(=O)NC(=O)NC2CCCCC2)cc1,0.824 ± 0.19
15,CCCCCCNC(=O)n1cc(F)c(=O)[nH]c1=O,0.007569 ± 7.1e-05
16,CCCCCCCC/C=C\CCCCCCCC(=O)O.NCCO,0.717 ± 0.33
17,COc1cc(NS(=O)(=O)c2ccc(N)cc2)ncn1,1.34 ± 0.16
18,CC1(C)O[C@@H]2C[C@H]3[C@@H]4C[C@H](F)C5=CC(=O)C=C[C@]5(C)[C@@]4(F)[C@@H](O)C[C@]3(C)[C@]2(C(=O)CO)O1,1.2 ± 0.11
19,Cc1cc(C)nc(NS(=O)(=O)c2ccc(N)cc2)n1,0.88 ± 0.14
20,CN(C(=O)CN(CCO)CC(=O)N(C)C(C)(C)Cc1ccccc1)C(C)(C)Cc1ccccc1,1.01 ± 0.028
21,COC(=O)N/N=C/c1c[n+]([O-])c2ccccc2[n+]1[O-],0.55 ± 0.04
22,CC(C)[C@H](N)C(=O)OCCOCn1cnc2c(=O)nc(N)[nH]c21,1.13 ± 0.026
23,C[C@@H]1C/C=C/C=C/C=C/C=C/[C@H](O[C@@H]2O[C@H](C)[C@@H](O)[C@H](N)[C@@H]2O)C[C@@H]2O[C@](O)(C[C@@H](O)C[C@H]3O[C@@H]3/C=C/C(=O)O1)C[C@H](O)[C@H]2C(=O)O,1.06 ± 0.045
24,O=C(O)c1ccc[n+]([O-])c1,1.29 ± 0.093

row,Compound,normalized growth
1,NC[C@H]1O[C@H](O[C@H]2[C@H](O)[C@@H](O[C@H]3O[C@H](CO)[C@@H](O)[C@H](N)[C@H]3O)[C@H](N)C[C@@H]2N)[C@H](N)C[C@@H]1O,1.2 ± 0.05
2,CCOC(=O)Nc1nc2ccccc2[nH]1,0.857 ± 0.03
3,CC(=O)Nc1ccc(OC(=O)c2ccccc2O)cc1,1.02 ± 0.058
4,COc1cc2nc(N3CCN(C(=O)C4COc5ccccc5O4)CC3)nc(N)c2cc1OC (stereo unspecified),0.796 ± 0.019
5,N[C@H]1CONC1=O,1.05 ± 0.036
6,CCCCC1C(=O)N(c2ccccc2)N(c2ccc(O)cc2)C1=O (stereo unspecified),0.8937 ± 0.0078
7,O=C(CCBr)N1CCN(C(=O)CCBr)CC1,0.943 ± 0.05
8,CCN(CC)CCOCCOC(=O)C1(c2ccccc2)CCCC1,1.01 ± 0.041
9,CC#CCn1c(N2CCC[C@@H](N)C2)nc2c1c(=O)n(Cc1nc(C)c3ccccc3n1)c(=O)n2C,0.926 ± 0.058
10,CC(C)(CO)[C@@H](O)C(=O)NCCC(=O)O [PANTOTHENIC ACID(d) Na salt],1.27 ± 0.039
11,CCN(CCCCOC(=O)c1ccc(OC)c(OC)c1)C(C)Cc1ccc(OC)cc1 (stereo unspecified),1.03 ± 0.021
12,Cc1cc(C(C)(C)C)cc(C)c1CC1=NCCN1,0.973 ± 0.035
13,CCN(CC)C(=O)C1(c2ccccc2)CC1CN (stereo unspecified),1.13 ± 0.043
14,CCCCCCOc1ccccc1C(N)=O,1.01 ± 0.048
15,CCN(CC)CCNC(=O)c1ccc(N)cc1,0.93 ± 0.051
16,NC[C@H](O)c1ccc(O)c(O)c1,0.942 ± 0.015
17,O=C(O)C1=C(CSc2nnnn2CS(=O)(=O)O)CS[C@@H]2[C@H](NC(=O)[C@H](O)c3ccccc3)C(=O)N12,1.01 ± 0.024
18,CC(C)[N+]1(C)[C@@H]2CC[C@H]1C[C@@H](OC(=O)C(CO)c1ccccc1)C2 (stereo partly specified),0.9 ± 0.093
19,Cc1ccc(-c2cc(C(F)(F)F)nn2-c2ccc(S(N)(=O)=O)cc2)cc1,1.11 ± 0.02
20,Nc1ccc(S(=O)(=O)Nc2nccs2)cc1,1.03 ± 0.026
21,CN[C@H]1CC[C@@H](c2ccc(Cl)c(Cl)c2)c2ccccc21,1.02 ± 0.033
22,CC[C@H]1OC(=O)[C@H](C)[C@@H](O[C@H]2C[C@@](C)(OC)[C@@H](O)[C@H](C)O2)[C@H](C)[C@@H](O[C@@H]2O[C@H](C)C[C@H](N(C)C)[C@H]2O)[C@](C)(O)C[C@@H](C)CN(C)[C@H](C)[C@@H](O)[C@]1(C)O,0.566 ± 0.0065
23,COC(=O)[C@H](Cc1ccccc1)NC(=O)[C@@H](N)CC(=O)O,0.914 ± 0.051
24,CO/N=C(\C(=O)N[C@@H]1C(=O)N2C(C(=O)O)=C(COC(C)=O)CS[C@H]12)c1csc(N)n1,0.0479 ± 0.0089

# In the list so far, these have a thiophene ring, fused or not.
row,Compound,normalized growth
13,CN1C(C(=O)Nc2ccccn2)=C(O)c2sc(Cl)cc2S1(=O)=O,1 ± 0.014
14,CN1CCCN=C1/C=C/c1cccs1,0.951 ± 0.041

# Ordered by number of heavy atoms (descending): 3 of the compounds above.
row,Compound,normalized growth
17,O=C(O)C1=C(CSc2nnnn2CS(=O)(=O)O)CS[C@@H]2[C@H](NC(=O)[C@H](O)c3ccccc3)C(=O)N12,1.01 ± 0.024
4,COc1cc2nc(N3CCN(C(=O)C4COc5ccccc5O4)CC3)nc(N)c2cc1OC (stereo unspecified),0.796 ± 0.019
3,CC(=O)Nc1ccc(OC(=O)c2ccccc2O)cc1,1.02 ± 0.058
